Among the data in paper PMC9949351, “Chromatin localization of nucleophosmin organizes ribosome biogenesis” (Molecular cell, 2022) are binding values, retold here.

Experiment [1] deals with T1, endogenously FLAG-tagged Fkbp39 (S. pombe) (UniProt O74191).
T1 sequence: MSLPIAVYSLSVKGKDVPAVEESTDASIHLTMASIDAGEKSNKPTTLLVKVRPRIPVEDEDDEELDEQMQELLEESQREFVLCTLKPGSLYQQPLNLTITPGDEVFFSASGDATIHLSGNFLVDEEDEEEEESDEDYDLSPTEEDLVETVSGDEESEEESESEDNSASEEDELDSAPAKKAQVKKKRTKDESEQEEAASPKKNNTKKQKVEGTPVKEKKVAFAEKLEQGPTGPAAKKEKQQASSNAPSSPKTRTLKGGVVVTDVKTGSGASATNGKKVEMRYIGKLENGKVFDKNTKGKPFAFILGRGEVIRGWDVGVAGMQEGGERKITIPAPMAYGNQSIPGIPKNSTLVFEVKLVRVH
As to the kind of experiment: affinity purification with cryo-EM of the eluted particles; particles pulled down with Fkbp39-FLAG from S. pombe; no clear density for Fkbp39 in the maps.

A further experiment concerns the target T2, FLAG-Ytm1 (S. pombe) (UniProt Q9URY0).
T2 sequence: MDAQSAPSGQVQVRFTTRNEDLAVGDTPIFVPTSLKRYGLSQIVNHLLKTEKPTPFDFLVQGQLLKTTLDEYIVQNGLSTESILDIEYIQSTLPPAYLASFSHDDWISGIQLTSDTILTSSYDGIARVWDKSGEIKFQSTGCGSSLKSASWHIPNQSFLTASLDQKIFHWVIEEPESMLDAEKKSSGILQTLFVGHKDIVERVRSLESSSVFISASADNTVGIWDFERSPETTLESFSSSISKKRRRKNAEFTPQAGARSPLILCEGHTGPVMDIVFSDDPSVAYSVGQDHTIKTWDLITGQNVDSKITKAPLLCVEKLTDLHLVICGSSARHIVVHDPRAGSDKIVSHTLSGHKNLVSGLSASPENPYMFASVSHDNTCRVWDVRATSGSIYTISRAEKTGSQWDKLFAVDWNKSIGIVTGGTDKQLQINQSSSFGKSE
In words: cryo-EM structure; nascent 60S purified through FLAG-Ytm1 from wild-type and fkbp39Δ S. pombe cells; maps at 2.8 to 3.8 Å.

Experiment [2] has as its target T1, endogenously FLAG-tagged Fkbp39 (S. pombe). In words: co-IP; in vivo: S. pombe lysate with nuclease, anti-FLAG M2 affinity gel, 100 mM NaCl, 5 mM MgCl2, 50 mM Tris pH 7.5, 0.1% Nonidet P40, 3XFLAG peptide elution, western blot (anti-FLAG, anti-HA). (In western blotting, separated proteins are transferred to a membrane and probed.)

No constants are given. Whether binding was seen depends on the method and setting. For some of these results: In cells and extracts the contact can be indirect. Some entries that bind do so weakly or less than the wild type. Where a sequence is shown, tags or fusion partners need not be part of it.

B1: Ytm1 (protein, UniProt Q9URY0 1-440)
chain: T2 sequence
Consider B1, for which the binding entry in experiment [1] is reported as “binds”.

B2: Erb1 (protein, UniProt O74399 1-740)
chain: METGMNRKRSRSKRANSNVGVEKDKEKEKSKGVSNVPNEVETESSSHEPSFKKDVDEEIPSLTAELSEEEEGEYSSESGRSTPELSPDDFEDADDEEEFEEIDAGYSSDSSTEDVAPGLYESPYDENLYINYDIDGKKITRPATPAALDSLIASIDKDKGWTGIVDPMTGKPVNLTTEELGLLKRLAQSEIPDENFDPYPDYDDFFTNTVRETPLSSAPEPKRRFAPSKHEQKRILQLAYAIRKGRILTSEQRAERERESQSNYADHDLWADDDQATVNQRKLDYAPAPKLPPPSHEESYNPPEEYLKQSSDFPKKYKSLRVVPAYSNLIKEKFERCLDLYLAPRVRRTKLNIDPESLLPKLPTPSELRPFPTRCTNVFIGHKGRVRCLSVHVSGNWLASGGDDGVLRIWEVMTGRCVWKCSLDSFGNAHNIDSDEDAVNESLSHSTKSSIIQSLAWGPLSDSPVLAVAVDETVYFITPPIFSDEQIEASKELFTSAPYQESSAIWRRGAKQSLQLHGGIVHATVSTPSSIKSLSWHRRGDYLATSSPTSSSQAVLIHQLSRGASQSPFSKSKGSVQAVTFHPTMPYLLVATQRYVRIYNLVKQELVKTLLTGVKWVSSLSVHSSGDHVIIGSYDKRLCWFDLDFSSKPYKNLRYHSRALRDVSYHPSLPLFCSGSDDGDVQVFHGRVYSDLLANPLIVPLKILRNHKVVDNVGVLSTCWHPKEAWLFSAGAGGEIRMWT
For the molecule B2, the binding result (in experiment [1]; with FLAG-Ytm1 (S. pombe)) was “binds” in each case.

B3: Fkbp41 (natural protein, S. pombe, UniProt Q10175 1-362, looked up)
chain: MSKEETLYSVKVDQERVPLFDEDFYKGFRSELSVRFTMAALDPRAKSNDAVTVNVITRLEHPEEDGEESDEELFQEEKFTLCTLKKGSVYQQPIDIIFSPGEEVFFERVGGDIPVYLSGTCIITNIPEEEDSSDLENDFLYGADEFSSDEEEMDDISVTSSEEEEEENGARIEELNSDEEDAEQAEEEILEKPVPKDEVAEKHSKDKLKKEEKEKKTAVDVSDSVNGKKRKTEPAGEGEQTEKKSKSTKTYPKQVLEGNVTVQDKVKGDGPAAKRKKRVSMRYIGRLTNGKVFDKNITGKPFTFNLGLEEVIKGWDVGIVGMQVGGERTIHIPAAMAYGSKRLPGIPANSDLVFDVKLLAVN
notes: Fkbp41, S. pombe, SPAC27F1.06c; cloned into a pETDuet vector behind 6xHis-SUMO and an HRV-3C site; also called nucleophosmin-like protein Fkbp41; SPAC27F1.06c; source: E. coli Rosetta (DE3), purified (Ni Sepharose, tag removed, Q ion exchange, at times SEC); not shown: 6xHis, N-terminal, cleaved; SUMO, N-terminal, cleaved
Consider B3, for which, in experiment [2], the binding result is “binds”.

B4: Ppp1 (protein, UniProt O60164 1-607)
chain: MARVKQKGKAGAARIYITRNQALKKLQLTLADFRRICILKGVYPREPKNKKKANKGSTAPVTFYYTKDIQYLLHEPIVQKFREYKVFARKLSKALGKGELETAKRLEARKPTYSLDHIIKERYPTFHDALKDIDDALSMLFLFSTMPVTDKIGAATVANCERLCAEFQHYVIRSNSLRKAFLSIKGIYYQAEIFGEQITWIVPYKFAQSVPTDVDFRIMHTFLEFYQALMGFVNFKLYNTLGLRYPPKIDVAKSESAAGLAAYELEESSSLPAIVHGNNKNARKNIATLKSKIRDIVNSDANVVEQSEKTTEDADEEPETEENLDEFKPADGADNEDSKSLVSHISSSNTSLFSNFTFFLSREVPRFSLEFVIRAFGGKVGWDPILGSGSPFSESDPVITHHICDRPHISQKYEGRIYIQPQWVYDSINKGILERTDLYACGATLPPHLSPFVKVGENDYDPEAELSAEENDDVSEALDDNISGEAVPISKKNDEPENVEQIDDAEEEDLEHQRELEAEAGGVAYSEYVKQNSKSAKKTKKRQRDTLTAEEKEEKEAKELSKMMMSNKQRKLYSKLKNENSKNENYNNALRNRKRDIEKRKKLKVEN
As to B4, the binding result (in experiment [1]; with FLAG-Ytm1 (S. pombe)) was “binds” throughout.

B5: Rlp7 (protein, UniProt P17937 1-249)
chain: MAEDAPVVQQTMLEPEVLLKKRKVNERTRKERVEQAIAKKEAQKKNRKETFKRAETFINNYRQRERERIRLNRSAKNKGDIFVPDETKLLFVIRIAGVKNMPPKIRKVLRLLRLSRINNAVFVRNNKAVAQMLRIVEPYVMYGIPNLHSVRELIYKRGFGKINGQRIALSDNALIEEALGKYDVISIEDIIHEIYNVGSHFKEVTKFLWPFTLTPVKHSLMEKKVKHFNEGRKAGYCGEEINELIKKQV
B5: the binding result in the experiment with FLAG-Ytm1 (S. pombe) is given as “binds”.
